42 sequences from paper PMC7819943, “Rice protein-binding microarrays: a tool to detect cis-acting elements near promoter regions in rice” can be followed below.

The list shows a part of the results.

The assay concerns the target T1, OsSMF1 (Oryza sativa, UniProt Q6ZLB0 1-436).
T1 sequence: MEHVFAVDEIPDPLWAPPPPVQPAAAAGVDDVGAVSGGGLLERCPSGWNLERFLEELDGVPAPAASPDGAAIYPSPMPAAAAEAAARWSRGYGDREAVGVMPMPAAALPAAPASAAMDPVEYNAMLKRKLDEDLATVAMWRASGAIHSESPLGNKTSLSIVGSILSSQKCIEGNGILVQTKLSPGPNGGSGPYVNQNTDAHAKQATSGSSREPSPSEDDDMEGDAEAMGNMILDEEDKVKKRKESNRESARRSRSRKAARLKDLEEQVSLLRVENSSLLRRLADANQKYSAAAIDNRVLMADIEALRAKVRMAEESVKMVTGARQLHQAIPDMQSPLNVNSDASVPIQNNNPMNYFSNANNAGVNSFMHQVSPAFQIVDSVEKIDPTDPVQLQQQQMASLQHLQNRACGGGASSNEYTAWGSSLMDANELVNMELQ
The assay is described as follows: protein-binding microarray (RPBM); PBS, 2% BSA, 51.3 ng/ul salmon testes DNA, 50 uM zinc acetate, 200 nM TF, 25 C, 1 h; high values mean tight binding. Conditions: protein: recombinant; tags: N-terminal polyhistidine and DsRed monomer fusion (pET32a); chain copies: 2; label: CyDye5-dUTP incorporated in the synthesized complementary strand; 3' TTTTT single-stranded linker to array surface; dsDNA, one strand shown. The gist of the method:
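An Axon 4000B scanner gave the binding signal as per-feature fluorescence intensity in arbitrary units. This followed washing of a custom Agilent array that had been incubated for 1 h at 25 °C with 200 nM protein in PBS, 2% BSA, salmon testes DNA and 50 µM zinc acetate. The proteins were transcription factors fused at the N-terminus to polyhistidine and DsRed, expressed in E. coli BL21-CodonPlus and purified on Ni–NTA.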
Regarding “TAAGTGATTTTAGTTAGATGGGACACATCATATTATTATGCGGAGTCACCTAGTGCAG”, the binding signal is 3530 fluorescence intensity (a.u.).

Turning to “CTTGCCGCCGCCGCGTCAGCTTCCACCGCCGCCGCCGCCGCGGAGTCACCTAGTGCAG”, the binding signal was 5540 fluorescence intensity (a.u.). The figure for “AAGTGGGTGAGTCCAATAGGTGTGCACGTGAGGGGAGGGGCGGAGTCACCTAGTGCAG” is 6340 fluorescence intensity (a.u.); for “CGGCGCCTAGACTGCGTATCGTAGCTGTCGAACGTGTCGTCGGAGTCACCTAGTGCAG” it is 3640 fluorescence intensity (a.u.); for “GTGTGTTTGGAATGAGAAATGTGGGGTGGGATTGGAATTACGGAGTCACCTAGTGCAG” it is 4040 fluorescence intensity (a.u.). The figure for “ATAATGACGCGTTCAATACATATACTCAGTACGTGCTACTCGGAGTCACCTAGTGCAG” is 3600 fluorescence intensity (a.u.); for “CGGGGTTGCAGAATTTGGTGGTCCTACGTGGTGGCGGCACCGGAGTCACCTAGTGCAG” it is 6010 fluorescence intensity (a.u.); for “TTAAAACGCATCAAGATTATAAGAGCCAAGAGAAATTGCACGGAGTCACCTAGTGCAG” it is 3520 fluorescence intensity (a.u.). The figure for “TTCAATCGTACCACAATGTAGCATGTGTCATGAGCAGAAACGGAGTCACCTAGTGCAG” is 5210 fluorescence intensity (a.u.). Regarding “GCTTCGAGCCTTCCTTGTCCAGCGTGGGGCGGGGCACTCCCGGAGTCACCTAGTGCAG”, the binding signal is 3840 fluorescence intensity (a.u.). In the case of “GTCCTCCTTAAAACATTAAGTGGTCATCAGTCACTAACGACGGAGTCACCTAGTGCAG”, the binding signal was 3820 fluorescence intensity (a.u.). The figure for “GGTTCTTTGCGGCATACGACGGGAATGTTGGGTCCCACGTCGGAGTCACCTAGTGCAG” is 3570 fluorescence intensity (a.u.); for “GCGTATGCCGGTGGATTAGGTTTCGAGGGTGGATCCAGTGCGGAGTCACCTAGTGCAG” it is 17800 fluorescence intensity (a.u.). The figure for “CTAGATGCCATCAGATGTGTCAGCTTGGTGCCGCATATCACGGAGTCACCTAGTGCAG” is 5540 fluorescence intensity (a.u.). On to “TATGGATGGGTTTTATTAATAGTCTACGTTTAATATTTATCGGAGTCACCTAGTGCAG”, for which the binding signal is 4490 fluorescence intensity (a.u.).

Regarding “TCATCAGGTAAGTCCACACTTGCCGCAGGTGAGTCAGTCGCGGAGTCACCTAGTGCAG”, the binding signal is 5290 fluorescence intensity (a.u.). With “GCCACGAGTTCCACGGCCGCGGCGTCGTCGTCGTCGTCGTCGGAGTCACCTAGTGCAG”, the binding signal was 3170 fluorescence intensity (a.u.). As for “TATTGCTGAGGATAATGGTATAATGATGTATCCCATTCGACGGAGTCACCTAGTGCAG”, the binding signal was 3760 fluorescence intensity (a.u.). As to “CGTCATGCTACTCACTGACGTCATCATCGTCTGGGCTGCCCGGAGTCACCTAGTGCAG”, the binding signal was 19000 fluorescence intensity (a.u.).

As to “GGACAGTTGAGTCATTCTACTGATGCTTTGGCCGGGGTGGCGGAGTCACCTAGTGCAG”, the binding signal is 3340 fluorescence intensity (a.u.). “TCTCGGCCCAATAAGACCGAGTCAGCATGGGCTTCCATCTCGGAGTCACCTAGTGCAG”: the binding signal was 8810 fluorescence intensity (a.u.). As for “GCAAGCGGCGGCGGTGTCACCATCCTCCCAGGCTACGGCTCGGAGTCACCTAGTGCAG”, the binding signal is 3150 fluorescence intensity (a.u.).

“CTCTCCCTCTCGCGTGTCCATTTCACGAATTCCTCGTCTCCGGAGTCACCTAGTGCAG”: the binding signal was 4240 fluorescence intensity (a.u.). The figure for “GTCCAAAACTGCGGCCATCGCCGTCATCCGGTAAGCGGAACGGAGTCACCTAGTGCAG” is 3580 fluorescence intensity (a.u.); for “AGAGTTAGGGGTGCATAATTTACAGCCAGGCTCCTTGAGACGGAGTCACCTAGTGCAG” it is 5700 fluorescence intensity (a.u.). With “TATATATATATATATATATATATATGAAAGTTTTATTCATCGGAGTCACCTAGTGCAG”, the binding signal was 3450 fluorescence intensity (a.u.). On to “CATATGTCCACGGCTCCAATATAATATCACCAATGGCAATCGGAGTCACCTAGTGCAG”, for which the binding signal is 36100 fluorescence intensity (a.u.). Take “GTCCGTCTTGTTTTCTCCTGCGTCACAATTGTCCCGTATTCGGAGTCACCTAGTGCAG”: the binding signal was 4280 fluorescence intensity (a.u.). With “TTAATAATACGCTTACTTTGACACCGACGTATGACATCATCGGAGTCACCTAGTGCAG”, the binding signal is 6360 fluorescence intensity (a.u.). In the case of “ATGGGCCGAGATGGTACTGTTGTATGGAGATGGGCTGACTCGGAGTCACCTAGTGCAG”, the binding signal is 4340 fluorescence intensity (a.u.). As for “TTTGCAAAATTTGCTGATGTGGCGCTCCTAACTTTCAACCCGGAGTCACCTAGTGCAG”, the binding signal was 13500 fluorescence intensity (a.u.). With “ACCGTCCTACATGGCTGTACAGCGTGGCTGCATATTTGCTCGGAGTCACCTAGTGCAG”, the binding signal was 3530 fluorescence intensity (a.u.). The figure for “CTGCCGCTGACGGTGTTCTTCAGCCACCAAGTTCACGCCGCGGAGTCACCTAGTGCAG” is 3430 fluorescence intensity (a.u.); for “ATGCATATTATTGTGGTTGATTGATGAATTTTAAACTCAGCGGAGTCACCTAGTGCAG” it is 17800 fluorescence intensity (a.u.). “AACATGTATTTAACCGTGGTTTGGCTGACTAGCACCGAGACGGAGTCACCTAGTGCAG”: the binding signal was 3300 fluorescence intensity (a.u.). For “CATTATCCAACTCGAACAGCGCGAGCGTGGGACACGTCACCGGAGTCACCTAGTGCAG”, the binding signal was 19600 fluorescence intensity (a.u.). In the case of “TGGGCACAGCCATGTTCATGCCAGCTAAGATTTCTCATCACGGAGTCACCTAGTGCAG”, the binding signal is 3980 fluorescence intensity (a.u.). With “AATTAATTTGTTCCTTTCGTCAGGGCTTGAGTCATGGAGTCGGAGTCACCTAGTGCAG”, the binding signal was 3150 fluorescence intensity (a.u.). The result for “TGTTTCTTTTCTTCAGACTAGTCACCTACGGTTTACTATTCGGAGTCACCTAGTGCAG” reads 3720 fluorescence intensity (a.u.). As to “TCCCATGCTAACTCAGCCACCACGTCGAACAAATCGGGGTCGGAGTCACCTAGTGCAG”, the binding signal was 3380 fluorescence intensity (a.u.). In the case of “ATCCCACCGCCCAGCGCCGCACCTCCTCTCCTCGTGCTCTCGGAGTCACCTAGTGCAG”, the binding signal is 3220 fluorescence intensity (a.u.). For “ATGACACCACTCTTGCTGACGTGGTCGAAAGATTCAGTTTCGGAGTCACCTAGTGCAG”, the binding signal was 16900 fluorescence intensity (a.u.).
